107 sequences from PubChem BioAssay AID1508600 (Functional Genomics Laboratory (NCATS/FGL), 2020) can be followed below.

Hit rate of the full screen: of about 53,000 sequences, about 3,700 (7%) were called active.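 Rule for the calls: active = gene knockdowns whose robust z-score for IL-1 alpha signal is at least 2 or at most -2, so actives lie on both sides; inactive = the rest.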 This is one part of the list.

The nature of this experiment: Components of the Cytosolic LPS Sensing Pathway: Gene Identification via Genome-wide siRNA Screen.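 Note: robust z of the log signal after scaling to non-targeting control siRNA wells of the plate.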 Particulars: RAW264.7 macrophages, IL-1a HTRF, actives lie on both sides, screened at 100 nM (by protocol), cells primed 5 h with Pam3CSK4 first. In a few lines:
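Using IL-1a HTRF as read-out, the screen measured release from RAW264.7 cells after 48h siRNA knockdown (100 nM), 5 h Pam3CSK4 priming and 24 h cytosolic LipidA. Values were expressed relative to negative-control wells as robust z-scores.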
(In general: In TR-FRET formats the signal depends on donor and acceptor labels being close together.)
Take GCCUUAUAGGGAGAUCUUUTT against Tsnaxip1: the z-score was inactive: -1.48. The result for GGUGAUGUGCCCAUGACAGTT against Ap1m2 reads inactive: 0.455.

Regarding GGAUUGCAAAUGGUUUAAUTT against Chchd2, the z-score is inactive: 1.19.

As to GUUGAUCGUGCAGAUCAAGTT against Diras1, the z-score was inactive: -0.338.

Turning to GGUAAACGAUGUACAGUUGTT against Notch2, the z-score was active: 2.6. GGGUUAUACCAAGUCCAUUTT against Mapk1: the z-score is inactive: -0.959. In the case of GGGAAAUUUCUCUACAUCUTT against Npas1, the z-score is active: 2.2. Consider GCCGUUAUCUGGACUUUACTT against Zpbp2, for which the z-score was inactive: -1.98. Take GGAAGUUUACCAGUCUAUCTT against Pik3c2a: the z-score is inactive: 1.4. The result for GGCUUCAUGAGUAGGAUUATT against Olfr943 reads inactive: -0.636; that for GGAACAGGAUACGUACGCUTT against Acat1, inactive: 1.31; that for GGAUGAGUCUUUCUAGUUATT against Nipa1, inactive: -0.337. For GGAACCCUGAACUUGAACGTT against Heg1, the z-score was inactive: -1.46. The result for CCUUCAAUGAAAUAAGCACTT against Olfr1155 reads inactive: 0.137. With GCAAUUACAGAUUAAGUCUTT against Zfp869 the figure was inactive: -0.757. The result for GGUGCUCAUUUUAUUGAGATT against Agmo reads inactive: -0.875; that for GCCUAGCAGUGCCAGGAAATT against Epn2, inactive: -0.169; that for GCCACGACACGAUGACAUATT against Plcxd1, inactive: 0.918. As to GUGCAUGCAGUGUUGUUUUTT against Magea5, the z-score is inactive: 0.711. Consider GGGAUCAAUUUUGAAGAAUTT against Jmjd4, for which the z-score was inactive: -0.398. The result for GGUAAUUGCUGGCUUUAAUTT against Pfdn2 reads inactive: 0.359; that for GGAGGAGAUGAUAAAGAUUTT against Glyr1, inactive: -0.987; that for CCGUUGUUUACCUUGUGGCTT against Zdhhc20, inactive: -1.36.

Turning to GCGCAAGGAAGAUGCCCAUTT against Usp17lb, the z-score was inactive: 0.339. With CCAAGAAGCAUGCAUGUAUTT against Resf1 the figure was inactive: -0.217; with “GGUCGUUAAAAAAGAUGUGTT against 2810004N23Rik”, inactive: -0.433. With GGUAUUGGUGCAAUUGUCCTT against Olfr891 the figure was inactive: -0.839; with CCUGGACCAAAAUUUUGUGTT against Cyp2j5, inactive: 0.606; with GGACUUGAAUGAUAAGUUCTT against Cyp1a1, inactive: 0.23.

Regarding GGACUUUGAGAACUUUUAUTT against Sptlc3, the z-score is inactive: -1.55.

For GGACAUUAUCACUUUGGAATT against Casp2, the z-score was inactive: -0.923. For GGCUGGAAGCGUAAUUCACTT against Trim36, the z-score is inactive: 0.427. Turning to CCAAGAUUCAUAAGAAGGCTT against Tas2r131, the z-score was inactive: 0.646. As to GGAACUUCAGAGUAAACCUTT against H2-T23, the z-score was inactive: 0.096.

In the case of CCAUCGACUGUUUCAUCCUTT against Olfr987, the z-score is inactive: -0.915. On to CGCAAAGGAGGCUUUACUCTT against Foxred1, for which the z-score is inactive: 1.52. With GUCAGAUCUCAGAAUCAUGTT against Ercc6l2 the figure was active: -2.27.

Take GCAGCACAGUACUAUCUCGTT against Ttc4: the z-score was inactive: -0.339. Consider GCUGGAGAUCUAAAAACAGTT against Mphosph10, for which the z-score was inactive: 1.54.

As for GCAUCAAUUGUCAGGAAAUTT against Rev3l, the z-score is inactive: 0.807.

Regarding GUUCAGACAGAAACCCAGUTT against Fxyd3, the z-score is inactive: 1.87. With GCUUAUUCCCAGGAGACCATT against Dmrtc2 the figure was inactive: -0.764; with GCCGAGAAUGAAGUUAGAATT against Mybl1, inactive: 0.778. As to GCUCAGAGGUGUAUUCAUUTT against Igf2bp2, the z-score was inactive: -0.3. GGACCUGGAUGUGUCCUAUTT against Lrfn4: the z-score was inactive: 0.0714. Take GGAACCAGAAGAAUCAUUGTT against Casp4: the z-score is inactive: -1.43. The result for CCAAGUACAAAUGGUGUGATT against Vdac2 reads inactive: -1.78; that for “GGAAUAUCACCAAACCAAATT against 2310057J18Rik”, inactive: -1.08.

In the case of CCAGGAAGUGUUGAUGUGCTT against Gal, the z-score was inactive: -1.75. The result for GGAAAAAAUCAAGAGUGAATT against Fam50a reads inactive: -0.157. Consider GCCAGGAACCCUUUUAAUCTT against Cyb5r2, for which the z-score was inactive: -0.746. With CGACAACACAGUUAUUAUUTT against Pld1 the figure was inactive: 0.338; with GCUCUAUGGAGACCUAAAGTT against Sdha, inactive: -0.378. The result for GGAACUCACCCUCAGCUUGTT against Tmem260 reads inactive: 0.313; that for GCAGAUGAAUCCAUUCUGATT against Ppp4r4, inactive: -1.58. The result for GGAUCAAUGGUGUCUUUGUTT against Pdzk1 reads active: -2.2; that for GGCAGAUGUGUUUGCUUUUTT against Pbk, active: 3.51; that for GGUCCUGAAGAAAUCCGAUTT against Clybl, inactive: -0.489. Consider GGGACAUAUUGUUUCCCUUTT against Tmco5b, for which the z-score was inactive: 0.777. Take GGAAAUAAAGUGAGUUUUGTT against Etaa1: the z-score is active: 4.95. With GGACACUGUGAUGUGAGACTT against Mier2 the figure was inactive: -0.0346.

On to GGUCUAUUCUGUUGAGUAATT against Glud1, for which the z-score is inactive: -0.641. CCUUUACCGUAUCAGCGAGTT against Rassf6: the z-score is inactive: -0.747.

For the sequence GGGCUCCUUCCUUGAAAAGTT against Dclre1c, the z-score was inactive: 0.365. With GCUAGAUGCAAAAUAUUCATT against Lbr the figure was inactive: -1.98; with GGAGUUCAAGCAGAACAUUTT against Tpd52, inactive: -0.643; with GUAGACCGAAACCACUUCCTT against Alyref2, inactive: -0.669. The result for GGACAAGUGUCAGAUAUCATT against Asah2 reads active: -2.02. The result for GCAGAGCUCUGUUAAGAAGTT against Pbp2 reads inactive: -0.31; that for GCCUGACGGCACGUAUGUATT against Acox1, inactive: 0.527. Consider GCAGAGCGGGAUUUCAUUCTT against Sh3glb2, for which the z-score is inactive: -1.23. The result for GGAAGAGAGGGUGAAUAUGTT against Tmem41b reads active: -2.56. The result for GCCUAAUGCCAACUCACAATT against Samd7 reads inactive: -1.49.

With GGCAUUUAUUACUACCUGATT against Lancl1, the z-score is inactive: 0.754. The result for GGGAACCAUGAACAAUGUGTT against Shisa2 reads inactive: 1.66; that for GAUGCACACGUGGGAAGACTT against Cdpf1, active: 2.25; that for CCAGAGAGGUUUAUAAGUCTT against Zfp655, inactive: 0.317. Regarding CCCAAGUGCUAACCUAAUATT against Mtfp1, the z-score was inactive: 0.218. GGAGUACAUGACCACAGAUTT against Lncpint: the z-score is active: -2.06. With GCUGGUAUCAGGAAUACCUTT against Cacna1e the figure was inactive: 0.497; with GGUUGGCUUCCUUAUCUUGTT against Cyp7b1, inactive: -1.02. Turning to GGAAACCCACAAAAAACAATT against Klhl26, the z-score is inactive: 0.269.

Regarding GGAAGGACAGCCUUUUGAUTT against Cyp2j13, the z-score was inactive: 0.0584. With CGACCAAUUAUAGUUUAUGTT against Zranb1 the figure was inactive: 0.806; with GGAAGAAUACCAAAAGGUUTT against Msra, inactive: -1.88; with GGAAGUGACAGCUUUCGUCTT against Tmbim1, inactive: 0.0257.

As for GCUACUACGGCCAUUGUGATT against Fbln2, the z-score was inactive: -1.39.

For the sequence GGACAGGAACCAAAAUGAGTT against Sfxn2, the z-score was inactive: -1.17.

Regarding GGAAGAAUUUAAGAAGUUCTT against Pdia3, the z-score was inactive: 1.24.

Turning to GCAUACUUUUGUCAAGUCCTT against Moxd2, the z-score is inactive: 0.68. With GCCAUCGAUACCACAACACTT against Slfn8 the figure was inactive: -1.61. With GGCUCCAUUAAACUAAUCATT against Olfr1102 the figure was inactive: -0.563. The result for GCAGACCCAAAAGCAUUAATT against Zbtb38 reads inactive: 0.223; that for GCAGUUAUUCUGAAAGCAATT against Olfr1386, inactive: -1.76; that for CCCGGUAUUAAAUUUAAUGTT against Aox4, inactive: 0.807.

For the sequence CCAACGUGCAGAAAUGUCUTT against Metrn, the z-score was inactive: 0.671. The result for CCCUGAACAGGUCAUCUGUTT against Ctps2 reads inactive: 0.822; that for GCGUAAUGCUAGGAGAAGCTT against Celsr3, inactive: -0.659.

Consider GGACCACUAUAUCUUAACUTT against Cdh23, for which the z-score was inactive: 1.12.

As for GGGACAAAAGCAAUCAAACTT against H2-M11, the z-score is active: 2.06. Consider GCACAUGUUCCUUACUUAUTT against Calcr, for which the z-score was inactive: 0.656. With GCAUUGCUAUUCAACUCCUTT against Marcks, the z-score is inactive: -0.427.

For the sequence GUUCCUGAGUACCUAUGUCTT against Aqp7, the z-score is inactive: -0.254. With GCUGAGUCCAUUGAAGAAGTT against Pebp4 the figure was inactive: 0.255; with GGACAUCACAGCAUAUCGUTT against Peli2, inactive: -1.53; with GGUGUGAUGCUUGAGUGUCTT against Skint3, active: 2.08. With GGGUAGUCACUCAAUAAAUTT against Pear1 the figure was inactive: -0.54.
